Among the test systems are AsPC-1 cells; BxPC-3 cells; PANC-1 cells.
Assay in all cases: cells
What all share (conditions): Homo sapiens, read-out: IC50 of PCP

Structures are written as SMILES. Read-outs that look alike come from different tables or passages of the source.

`CN1CCN(CCCN2c3ccccc3Sc3ccc(Cl)cc32)CC1` [PCP, Prochlorperazine]: the IC50 was more than 20 µM in the experiment on AsPC-1 cells (ASPC1, 24 h); more than 20 µM in the experiment with AsPC-1 cells (ASPC1, 48 h); 19.9 ± 1.1 µM in the experiment on AsPC-1 cells (ASPC1, 72 h); more than 20 µM in the experiment on BxPC-3 cells (BXPC-3, 24 h); 17.9 ± 2.1 µM with BxPC-3 cells (BXPC-3, 48 h); more than 20 µM in the experiment on PANC-1 cells (PANC-1, 24 h). Moreover, the IC50 in the experiment with PANC-1 cells (PANC-1, 48 h) is more than 20 µM; with PANC-1 cells (PANC-1, 72 h), 15.4 ± 0.8 µM.

Source of the values: patent US20250044294A1, “COMPOSITION AND METHOD OF TREATING A CANCER THROUGH AFFECTING MEMBRANE RECEPTORS OF CANCER CELLS AND THEIR DERIVED EXTRACELLULAR VESICLES” (National Yang Ming Chiao Tung University, priority 2023, published 2025).
